The record followed here is publication PMC8445485.

The target of the assay is T1, Flag-tagged RIG-I full length (UniProt O95786).
T1 sequence: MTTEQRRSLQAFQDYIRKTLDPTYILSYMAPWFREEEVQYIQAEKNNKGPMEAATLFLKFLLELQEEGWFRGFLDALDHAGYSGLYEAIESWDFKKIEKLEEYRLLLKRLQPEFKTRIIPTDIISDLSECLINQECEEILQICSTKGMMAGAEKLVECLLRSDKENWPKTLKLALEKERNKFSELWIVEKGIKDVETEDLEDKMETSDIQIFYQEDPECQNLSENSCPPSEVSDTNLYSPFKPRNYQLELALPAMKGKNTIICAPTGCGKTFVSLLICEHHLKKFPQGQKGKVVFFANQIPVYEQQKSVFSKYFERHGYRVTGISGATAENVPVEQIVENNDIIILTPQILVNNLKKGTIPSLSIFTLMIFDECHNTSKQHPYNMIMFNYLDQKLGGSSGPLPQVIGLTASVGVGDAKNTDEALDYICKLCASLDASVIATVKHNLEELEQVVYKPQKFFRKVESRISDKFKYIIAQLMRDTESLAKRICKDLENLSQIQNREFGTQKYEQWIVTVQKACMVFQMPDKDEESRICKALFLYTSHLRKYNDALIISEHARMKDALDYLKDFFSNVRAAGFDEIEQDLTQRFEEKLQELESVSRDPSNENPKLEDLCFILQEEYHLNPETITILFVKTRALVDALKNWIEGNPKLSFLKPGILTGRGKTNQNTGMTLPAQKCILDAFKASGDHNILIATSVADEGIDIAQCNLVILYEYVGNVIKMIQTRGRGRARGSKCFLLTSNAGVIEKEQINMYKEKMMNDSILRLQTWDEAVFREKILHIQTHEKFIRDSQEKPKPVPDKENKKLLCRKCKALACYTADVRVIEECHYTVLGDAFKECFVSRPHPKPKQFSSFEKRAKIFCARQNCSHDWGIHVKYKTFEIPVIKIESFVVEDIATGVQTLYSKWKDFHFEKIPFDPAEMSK
As to the kind of experiment: co-IP; HEK293T transfected with RIG-I and TRIM4, TRIM25 or RNF135 for 24 hr, with or without exogenous LSD1 (Fig 5E) or after siNC or LSD1 siRNA (Fig 5F); RIG-I as bait; immunoblot. (A western blot detects proteins with antibodies after separation by electrophoresis.)

Results are given in words; binding and its absence hold for the method and conditions named. In cells and extracts the contact can be indirect. Some binding calls cover weakened binding; strength is not graded here. Tags and fused reporters may be left off the sequences shown.

B1: HA-tagged TRIM4 (enzyme, UniProt Q9C037 1-500)
chain: MEAEDIQEELTCPICLDYFQDPVSIECGHNFCRGCLHRNWAPGGGPFPCPECRHPSAPAALRPNWALARLTEKTQRRRLGPVPPGLCGRHWEPLRLFCEDDQRPVCLVCRESQEHQTHAMAPIDEAFESYRTGNFDIHVDEWKRRLIRLLLYHFKQEEKLLKSQRNLVAKMKKVMHLQDVEVKNATQWKDKIKSQRMRISTEFSKLHNFLVEEEDLFLQRLNKEEEETKKKLNENTLKLNQTIASLKKLILEVGEKSQAPTLELLQNPKEVLTRSEIQDVNYSLEAVKVKTVCQIPLMKEMLKRFQVAVNLAEDTAHPKLVFSQEGRYVKNTASASSWPVFSSAWNYFAGWRNPQKTAFVERFQHLPCVLGKNVFTSGKHYWEVESRDSLEVAVGVCREDVMGITDRSKMSPDVGIWAIYWSAAGYWPLIGFPGTPTQQEPALHRVGVYLDRGTGNVSFYSAVDGVHLHTFSCSSVSRLRPFFWLSPLASLVIPPVTDRK
With B1, the binding entry is reported as “binds”.

B2: HA-tagged RNF135 (enzyme, UniProt Q8IUD6 1-432)
chain: MAGLGLGSAVPVWLAEDDLGCIICQGLLDWPATLPCGHSFCRHCLEALWGARDARRWACPTCRQGAAQQPHLRKNTLLQDLADKYRRAAREIQAGSDPAHCPCPGSSSLSSAAARPRRRPELQRVAVEKSITEVAQELTELVEHLVDIVRSLQNQRPLSESGPDNELSILGKAFSSGVDLSMASPKLVTSDTAAGKIRDILHDLEEIQEKLQESVTWKEAPEAQMQGELLEAPSSSSCPLPDQSHPALRRASRFAQWAIHPTFNLKSLSCSLEVSKDSRTVTVSHRPQPYRWSCERFSTSQVLCSQALSSGKHYWEVDTRNCSHWAVGVASWEMSRDQVLGRTMDSCCVEWKGTSQLSAWHMVKETVLGSDRPGVVGIWLNLEEGKLAFYSVDNQEKLLYECTISASSPLYPAFWLYGLHPGNYLIIKQVKV
Regarding B2, the binding result is listed as “binds”.
